The target in this assay is T1, thioredoxin-interacting protein (rat (endogenous in rat chondrocytes)) (UniProt Q5M7W1).
T1 sequence: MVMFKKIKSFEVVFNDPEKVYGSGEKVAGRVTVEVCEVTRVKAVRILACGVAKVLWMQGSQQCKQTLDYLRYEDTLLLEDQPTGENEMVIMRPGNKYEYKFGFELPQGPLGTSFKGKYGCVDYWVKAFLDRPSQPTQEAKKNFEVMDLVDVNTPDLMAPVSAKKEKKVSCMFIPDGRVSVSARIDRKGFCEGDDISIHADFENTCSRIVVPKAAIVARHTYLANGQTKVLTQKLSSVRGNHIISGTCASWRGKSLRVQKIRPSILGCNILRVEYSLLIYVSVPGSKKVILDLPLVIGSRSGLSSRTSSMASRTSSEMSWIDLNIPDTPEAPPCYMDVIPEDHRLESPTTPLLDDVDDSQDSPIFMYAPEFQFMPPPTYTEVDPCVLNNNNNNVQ
Nature of the assay: co-IP; lysates of IL-1β-treated rat chondrocytes in RIPA buffer; IgG or antibodies against USP25 and TXNIP at 4 °C overnight, protein A/G beads at 4 °C for 4 h; bound protein detected by western blot. On the technique in general: A western blot detects proteins with antibodies after separation by electrophoresis.

The text below walks through data of article PMC10561454.

Results are given in words; binding and its absence hold for the method and conditions named. In cells and extracts the contact can be indirect. A result given as binding can be weak or reduced; the word gives no strength.

In the case of “Ubiquitin-specific peptidase 25 (rat (endogenous in rat chondrocytes)) (enzyme)”, the binding result is “binds”.
